## Library screening results

The chains behind the UniProt entries cited, without tags or fusion partners.
UniProt E9BF75, entry or part of it: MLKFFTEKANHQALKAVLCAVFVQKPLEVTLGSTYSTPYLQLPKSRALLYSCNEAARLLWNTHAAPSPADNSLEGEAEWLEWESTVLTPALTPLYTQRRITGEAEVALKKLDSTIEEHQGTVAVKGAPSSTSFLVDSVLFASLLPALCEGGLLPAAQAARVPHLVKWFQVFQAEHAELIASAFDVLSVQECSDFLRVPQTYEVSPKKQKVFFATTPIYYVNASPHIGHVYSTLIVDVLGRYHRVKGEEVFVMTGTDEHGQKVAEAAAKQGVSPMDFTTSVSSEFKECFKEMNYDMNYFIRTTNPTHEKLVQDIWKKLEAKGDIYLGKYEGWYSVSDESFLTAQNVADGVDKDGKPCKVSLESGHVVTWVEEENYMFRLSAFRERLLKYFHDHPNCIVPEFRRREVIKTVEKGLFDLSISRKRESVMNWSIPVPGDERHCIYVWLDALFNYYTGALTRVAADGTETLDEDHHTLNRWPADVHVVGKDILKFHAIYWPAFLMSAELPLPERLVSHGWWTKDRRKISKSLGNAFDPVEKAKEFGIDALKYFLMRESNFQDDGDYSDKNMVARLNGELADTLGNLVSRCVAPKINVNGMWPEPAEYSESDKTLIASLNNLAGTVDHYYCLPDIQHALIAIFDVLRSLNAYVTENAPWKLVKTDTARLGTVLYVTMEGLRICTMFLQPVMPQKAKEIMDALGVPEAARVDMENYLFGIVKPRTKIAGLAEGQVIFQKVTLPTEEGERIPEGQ

Measurements from “University of Dundee, Small-Polar-MMV Screening Library” (2021), ChEMBL document CHEMBL3988442.

LdMetRS: 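Primary screen of methionyl-tRNA synthetase; the read-out is not stated. Target: Methionyl-tRNA synthetase (putative), Leishmania donovani (UniProt E9BF75). The test concentration is not given. Values are per cent inhibition. About 68,000 compounds were tested under these conditions; 0.035% (about 24) showed 50% or more at least once.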
Mtb heat-shock: 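Assay on Mycobacterium tuberculosis, filed only as a heat shock assay from Cornell; the read-out is not stated. The concentration is filed as 10 mM, unlikely as a test dose, so the dose is not known. Higher reads as stronger inhibition (inferred: compounds with an IC50 in retests scored well above the rest). About 69,000 compounds were tested under these conditions; 1.4% (about 930) showed 50% or more at least once.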

All values are in %. The record does not define 0% and 100%; most values in the screen are far below 50% and negative numbers occur (in some assays of this library far below -100). Compounds were drawn at random from those tested, without regard to their results. A dash means the value is not listed here; it may have been measured.

structure,LdMetRS,Mtb heat-shock
CC(C)CCN1CC2(CCN(C3CCCOC3)CC2)OC1=O (stereo not shown),17.39%,6.776%
COc1ccc(-c2nc(CCNC(=O)NCC3CCOC3)co2)cc1 (stereo not shown),11.49%,12.26%
O=C(c1cc(Br)ccc1-n1cnnn1)N1CCCCC1,16.53%,5.251%
CCc1nc2n(n1)CCCC2NC(=O)Nc1ccc(SC)c(F)c1 (stereo not shown),13.54%,0.3253%
CC(C)CCN1CCC2(CCCN(c3nncs3)C2)C1.O=C(O)C(F)(F)F (stereo not shown),-,-10.85%
COCC1CC2(CCN(Cc3ccccn3)CC2)CN1C(C)C (stereo not shown),8.155%,2.646%
CC(=O)NCC(=O)N1CCn2cc(CN3CCN(C)CC3)nc2C1.O=C(O)C(F)(F)F.O=C(O)C(F)(F)F,-,5.832%
Cc1cccn2cc(CN3CCCC(c4ccn[nH]4)C3)nc12 (stereo not shown),16.67%,23.59%
CC(C)OCCOCC(O)CN(C)C(=O)Nc1ccc(F)cc1Cl (stereo not shown),8.493%,-37.37%
COCC1CCN(C(=O)c2cn(Cc3ccccc3C(F)(F)F)nn2)C1 (stereo not shown),8.333%,-33.67%
Cc1nc(C2(NCC(=O)NCCc3cccs3)CCCC2)no1,14.08%,9.966%
Cc1cnc(C(=O)N2CC(=O)N(c3ccccc3Cl)CC2C)cn1 (stereo not shown),13.73%,0.5797%
O=C(NC1CCCNC1)c1cc(COc2cccc(C(F)(F)F)c2)[nH]n1 (stereo not shown),16.85%,-0.434%
COc1cccc(N2Cc3nc(=O)n(Cc4cccc(F)c4)n3C2=O)c1,9.044%,19.15%
CCc1nc(-c2ccnc(N3CCNCC3)n2)no1.Cl.Cl,-,-8.056%
CNc1cc2c(nn1)CCN(C(=O)c1cc(C)no1)C2,9.392%,6.449%
Cc1c[nH]c(CN(C)C(=O)[C@@]23CNC[C@@H]2CN(c2ncccn2)C3)n1,14.03%,-
Cc1ccc(C(=O)NCCNC(=O)N(C)C(C)c2ccccn2)cc1 (stereo not shown),8.824%,4.205%
O=C(O)C(F)(F)F.[H][C@@]12COC[C@]1(CNC(=O)CC1CC1)CN(c1ncccn1)C2,-,-3.628%
CC1COCCN1C(=O)c1cccc(OCc2cscn2)c1 (stereo not shown),12.27%,21.69%
Cc1ccc(CN2CCC(O)(Cn3ccc4ncccc43)CC2)o1.Cl,-,-13.38%
Cc1nc(CNc2nc3c(s2)c(C)nn3C)cs1,9.966%,7.902%
O=C(CCc1ccc(F)c(F)c1)N1CCCCC1Cn1cccn1 (stereo not shown),19.89%,0.1091%
[H][C@@]12CN(C(C)=O)C[C@]1(C(=O)NC)CCC21CCN(S(=O)(=O)C2CC2)CC1,-,-35.39%
O=C(O)C(F)(F)F.O=C(O)C(F)(F)F.[H][C@]12CCN(c3ncc(C)cn3)C[C@@]1([H])OCCN(Cc1ccncc1)C2,-,-16.63%
CC(C)(C)c1cc(=O)[nH]c(C2(N)CCCC2)n1,8.157%,-138.3%
O=C(O)C(F)(F)F.O=C1COC2(CCN(Cc3ccsc3)CC2)CN1,-,-1.519%
Cc1noc(C(C)C)c1C(=O)NCC1CCCN1Cc1ccccc1 (stereo not shown),7.519%,-22.62%
Cl.c1cnc2c(c1)cc(C1CCOCC1)n2CCN1CCOCC1,-,-8.2%
CCc1nc(CN2CCCN(C(=O)c3ccccc3)CC2)cs1,13.4%,14.59%
Cc1cc(CN(C)c2nc(-c3ccco3)nc3c2CCN(C)CC3)on1,16.1%,-2.601%
O=C(CCc1cc(Cl)no1)N1CCCCC1CCn1ccnc1 (stereo not shown),11.45%,-2.193%
CC(C)(C)c1cc(NC(=O)CN2CCc3cncnc3C2)on1,19.28%,-10.88%
CCS(=O)(=O)N1CCc2ccc(NC(=O)Nc3ccc(F)cc3F)cc21,11.76%,22.43%
Cc1cn(CC(=O)NCC(=O)NC2CC2)c2ccccc12,22.1%,-3.483%
Cc1csc(CCCNC(=O)[C@H]2CNC[C@@H](C(=O)N3CCCC3)C2)n1,17.5%,-11.04%
Cc1nc([C@H]2C[C@@H]3CCN(Cc4cnn(C)c4)C[C@H]3O2)sc1C,15.05%,-
CC(C)NC(=O)c1sc2ccccc2c1[C@H]1CC[C@H](CN)CC1.Cl,-,6.071%
Cn1cc(CN(C/C=C/c2ccccc2)C2CC2)cn1,15.09%,0.8242%
Cc1ccc(S(=O)(=O)N(CC2CCOC2)C2CC2)cc1N(C)C (stereo not shown),1.955%,-9.795%
[H][C@@]12CS(=O)(=O)C[C@]1([H])N(C(=O)Nc1ccccc1Cl)CCN2CCC,-,8.82%
CCn1c(Nc2ccccc2OC)nc2c(C)nn(C)c2c1=O,4.564%,23.59%
CCn1nc(C)c2nc(C(C)C)nc(NCCCn3ccnc3)c21,18.34%,-1.814%
CC(C)C(O)C1CCN(c2ccnc(C(=O)NCc3ccco3)c2)CC1 (stereo not shown),20.91%,28.64%
CCCc1cc(N2CCC(N[C@H]3CC[C@H](O)CC3)CC2)nc(C)n1,15.08%,-6.674%
Cc1cccc(CN2Cc3ncn(C)c3C(COCC(=O)N(C)C)C2)n1.O=C(O)C(F)(F)F.O=C(O)C(F)(F)F.O=C(O)C(F)(F)F (stereo not shown),-,-26.78%
Cc1ccc(CN2CCc3[nH]nc(C(=O)N(C)C)c3C2)o1.O=C(O)C(F)(F)F,-,-1.771%
Cc1nc(CN(C)c2nccc(C(F)(F)F)n2)cs1,19.76%,7.22%
CN(CC(=O)c1ccc2[nH]c(=O)[nH]c2c1)Cc1ccc2c(c1)OCO2,10.45%,-4.906%
Cc1ccccc1CN(CCN(C)C)Cc1ccc(S(C)(=O)=O)cc1,1.289%,-32.87%
CCCc1ccc(CN2CCN(C(=O)NCC)[C@H]3CS(=O)(=O)C[C@H]32)o1,12.03%,-
Cc1ccc(C2CCCCCN2C(=O)Nc2cn[nH]c2)o1 (stereo not shown),20.53%,17.23%
Cc1nc(CCC(=O)N2Cc3cnc(-c4ccccc4)nc3C2)n[nH]1,8.271%,-13.38%
O=C(O)C(F)(F)F.[H][C@]12CCN(C(=O)c3ccco3)[C@@]1([H])CC[C@H](COCCN1CCCC1)O2,-,-12.96%
CC(C)OC[C@H]1CCC[C@]12CN(S(=O)(=O)c1cn(C)cn1)CCO2,13.19%,30.12%
Cc1noc(C(C)C)c1C(=O)NCC(c1cccc(F)c1)N(C)C (stereo not shown),1.408%,8.976%
CC(=O)N1CC2(CCN(C(=O)C3CC3)CC2)c2cc(C)ccc21,2.92%,2.597%
CN1CCCCC1CCC(=O)NCCCn1ncc2ccccc21 (stereo not shown),12.84%,-0.1662%
COc1cc(N2CC[C@@H](O)[C@@H]2Cc2ccncc2)ncn1.O=C(O)C(F)(F)F,-,-0.7466%
O=C1CSC(c2ccncc2)c2c[nH]nc2N1 (stereo not shown),5.143%,-32.08%
Cc1cc(Br)ccc1C(=O)N(C)CCNS(C)(=O)=O,10.63%,4.549%
O=C(O)C(F)(F)F.O=C(O)C(F)(F)F.[H][C@@]12C[C@@H](Oc3ccc(C)cc3)CN1CCN(Cc1nccn1C)C2,-,-24.79%
O=S(=O)(c1ccccc1)N1CCOCC(Cc2cccnc2)C1 (stereo not shown),21.27%,-5.717%
O=C(Nc1ccc(CCN2CCC(O)CC2)cc1)Nc1cccnc1,16.3%,8.648%
c1cc(-c2c[nH]c([C@@H]3COCCN3Cc3ncc[nH]3)n2)ccn1,12.03%,-18.54%
CC(C)=CCC1(C(=O)O)CCCN(CCC(=O)NC2CC2)C1 (stereo not shown),6.479%,-4.147%
Cc1cc2c(=O)n3c(nc2s1)CCN(Cc1[nH]cnc1C)CC3.Cl,-,-6.097%
Cc1cnc(N2CCC3(CCC(C(=O)NC(C)C)OC3)CC2)nc1 (stereo not shown),12.32%,-3.334%
O=C(CN1CCCC(c2ccc(C(=O)O)cc2)C1)NC1CC1 (stereo not shown),14.81%,7.986%
O=C(c1nc2c(s1)CCCN2CC1CC1)N1CCCC1,-3.759%,-3.553%
COc1c(C2CCCN2Cc2cn3ccsc3n2)c(C)nn1C (stereo not shown),-4.087%,20.42%

For reference, 6 entries once more:

structure	LdMetRS	Mtb heat-shock
Cc1noc(C(C)C)c1C(=O)NCC1CCCN1Cc1ccccc1 (stereo not shown)	7.519%	-22.62%
O=C(O)C(F)(F)F.[H][C@]12CCN(C(=O)c3ccco3)[C@@]1([H])CC[C@H](COCCN1CCCC1)O2	-	-12.96%
O=C(NC1CCCNC1)c1cc(COc2cccc(C(F)(F)F)c2)[nH]n1 (stereo not shown)	16.85%	-0.434%
Cc1cccn2cc(CN3CCCC(c4ccn[nH]4)C3)nc12 (stereo not shown)	16.67%	23.59%
O=C(Nc1ccc(CCN2CCC(O)CC2)cc1)Nc1cccnc1	16.3%	8.648%
[H][C@@]12CS(=O)(=O)C[C@]1([H])N(C(=O)Nc1ccccc1Cl)CCN2CCC	-	8.82%